Laboratory results reported in paper PMC7417480.
No constants are given. Whether binding was seen depends on the method and setting. Binding seen in cells or lysates may run through a third protein. Some binding calls cover weakened binding; strength is not graded here. Tags and fused reporters may be left off the sequences shown.

What was measured:
FLAG-BAG5 = molecular target: T1, FLAG-BAG5 (UniProt Q9UL15); assay: co-IP; IP of FLAG-BAG5 from lysates of H4 cells transfected with FLAG-BAG5 and/or p62-HA; blots with anti-HA and anti-FLAG
T1 sequence: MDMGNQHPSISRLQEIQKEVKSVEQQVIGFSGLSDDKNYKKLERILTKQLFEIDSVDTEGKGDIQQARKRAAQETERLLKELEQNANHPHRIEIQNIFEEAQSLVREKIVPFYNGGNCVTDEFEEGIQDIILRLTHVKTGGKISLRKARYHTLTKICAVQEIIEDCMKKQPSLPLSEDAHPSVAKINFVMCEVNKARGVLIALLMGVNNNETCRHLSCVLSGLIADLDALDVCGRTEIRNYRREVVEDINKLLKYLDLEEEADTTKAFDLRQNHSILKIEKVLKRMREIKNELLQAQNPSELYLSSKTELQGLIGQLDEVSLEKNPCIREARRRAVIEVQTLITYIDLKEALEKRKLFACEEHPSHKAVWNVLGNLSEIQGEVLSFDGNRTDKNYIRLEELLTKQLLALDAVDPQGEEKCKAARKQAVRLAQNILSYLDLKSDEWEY

GST-BAG5 = molecular target: T2, GST-BAG5 (UniProt Q9UL15); assay: pull-down; 10 μg GST fusion protein on Glutathione Sepharose 4B beads incubated with 500 μg lysate (RIPA) of transfected H4 cells overnight at 4°C, three RIPA washes, Western blot; only the target purified
T2 sequence: T1 sequence

Row | Substance | binding (FLAG-BAG5) | binding (GST-BAG5)
1 | p62-HA (from UniProt Q13501 1-440) | binds | binds
2 | p62-N-HA (from UniProt Q13501 1-102) (domain or fragment) | – | no binding
3 | p62-C-HA (from UniProt Q13501 103-440) (domain or fragment) | – | binds
